Article PMC4553633
For at least one entry, the source does not settle the construct or the ends of the probe. A weaker result is weaker than the reference pair of the same experiment.

Chains of the proteins cited; added tags and fusions are not shown. A line that says so, or that is headed by a name, gives the form on record, which may keep a tag or linker.
UniProt P27782, whole entry: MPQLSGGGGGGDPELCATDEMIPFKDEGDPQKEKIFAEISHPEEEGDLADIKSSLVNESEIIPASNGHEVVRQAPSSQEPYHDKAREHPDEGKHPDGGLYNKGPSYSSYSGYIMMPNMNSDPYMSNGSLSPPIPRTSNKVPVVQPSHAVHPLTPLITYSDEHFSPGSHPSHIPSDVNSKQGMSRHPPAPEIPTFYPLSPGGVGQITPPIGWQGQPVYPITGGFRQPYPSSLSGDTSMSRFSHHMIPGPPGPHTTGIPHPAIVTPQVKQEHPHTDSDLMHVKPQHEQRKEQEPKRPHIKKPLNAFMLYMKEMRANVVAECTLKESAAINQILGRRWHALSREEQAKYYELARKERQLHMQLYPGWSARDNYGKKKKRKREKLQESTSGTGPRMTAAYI
His-Lef1 (mLef1) + flag-β-catenin (hβ-catenin), one chain, as listed by the source, chain 2 of 2: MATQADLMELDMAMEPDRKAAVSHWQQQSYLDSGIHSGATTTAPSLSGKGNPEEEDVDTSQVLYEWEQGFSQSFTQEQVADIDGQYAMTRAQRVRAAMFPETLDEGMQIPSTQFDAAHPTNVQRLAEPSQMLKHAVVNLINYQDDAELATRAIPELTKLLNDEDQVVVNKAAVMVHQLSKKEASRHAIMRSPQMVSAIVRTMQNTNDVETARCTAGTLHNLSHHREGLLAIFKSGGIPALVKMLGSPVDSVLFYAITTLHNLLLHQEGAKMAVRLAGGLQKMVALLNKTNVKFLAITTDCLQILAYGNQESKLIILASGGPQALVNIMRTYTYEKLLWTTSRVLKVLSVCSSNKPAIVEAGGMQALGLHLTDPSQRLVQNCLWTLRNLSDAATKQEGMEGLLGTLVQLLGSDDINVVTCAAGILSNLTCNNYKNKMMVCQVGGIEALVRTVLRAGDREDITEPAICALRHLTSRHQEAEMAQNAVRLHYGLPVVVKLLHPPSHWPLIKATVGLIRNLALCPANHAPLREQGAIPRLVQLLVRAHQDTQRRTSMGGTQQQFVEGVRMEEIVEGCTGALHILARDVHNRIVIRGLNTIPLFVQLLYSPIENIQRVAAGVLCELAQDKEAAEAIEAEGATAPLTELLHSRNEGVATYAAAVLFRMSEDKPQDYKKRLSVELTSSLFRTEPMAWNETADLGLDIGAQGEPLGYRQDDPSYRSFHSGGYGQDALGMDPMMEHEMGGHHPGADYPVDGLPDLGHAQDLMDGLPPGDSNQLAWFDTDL
His-Lef1 (mLef1) + flag-β-catenin (hβ-catenin), one chain, as listed by the source, chain 1 of 2: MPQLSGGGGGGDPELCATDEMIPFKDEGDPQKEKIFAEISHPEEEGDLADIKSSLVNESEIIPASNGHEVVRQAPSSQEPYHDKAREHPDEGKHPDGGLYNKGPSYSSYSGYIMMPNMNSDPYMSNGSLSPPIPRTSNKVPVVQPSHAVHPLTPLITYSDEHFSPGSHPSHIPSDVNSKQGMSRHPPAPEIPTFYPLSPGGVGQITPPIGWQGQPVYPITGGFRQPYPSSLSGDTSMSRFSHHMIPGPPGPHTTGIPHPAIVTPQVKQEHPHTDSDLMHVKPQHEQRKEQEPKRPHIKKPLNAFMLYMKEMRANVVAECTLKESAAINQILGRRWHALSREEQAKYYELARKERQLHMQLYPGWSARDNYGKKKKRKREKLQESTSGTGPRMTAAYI

What was measured:
[1] = system: His-Lef1 (mLef1) + flag-β-catenin (hβ-catenin); assay: competition with a labelled probe; settings: unlabeled N4 10-50x vs labeled N3; EMSA essentially as Forman et al. 1992 and Shtutman et al. 1999; pH and temperature not stated; protein translated in vitro; protein details: N-terminal His,flag
[2] = molecular target: His-Lef1 (mLef1) (Mus musculus) (UniProt P27782); assay: competition with a labelled probe; settings: unlabeled N4 10-50x vs labeled N3; EMSA essentially as Forman et al. 1992 and Shtutman et al. 1999; pH and temperature not stated; protein translated in vitro; protein details: N-terminal His
[3] = molecular target: His-Lef1 (mLef1) (Mus musculus) (UniProt P27782); assay: EMSA; settings: EMSA essentially as Forman et al. 1992 and Shtutman et al. 1999; pH and temperature not stated; protein translated in vitro; protein details: N-terminal His

Measured: binding result

TTGACCCTCCTCACATCTTTCTTAG (double strand) [Tcf/Lef mut]
binds more weakly: all assays above
